At least one compound was matched to its structure with a doubt left.
Columns and labels:
Type in all cases: biochemical
Details in all cases: 10 nM JAK enzyme, 800 nM Abl peptide, room temperature 75 min
JAK3 = target: T1, JAK3 (Homo sapiens, UniProt P52333); assay: JAK assay (KINASE-GLO luminescent kinase assay), JAK3
T1 sequence (P52333 1-1124): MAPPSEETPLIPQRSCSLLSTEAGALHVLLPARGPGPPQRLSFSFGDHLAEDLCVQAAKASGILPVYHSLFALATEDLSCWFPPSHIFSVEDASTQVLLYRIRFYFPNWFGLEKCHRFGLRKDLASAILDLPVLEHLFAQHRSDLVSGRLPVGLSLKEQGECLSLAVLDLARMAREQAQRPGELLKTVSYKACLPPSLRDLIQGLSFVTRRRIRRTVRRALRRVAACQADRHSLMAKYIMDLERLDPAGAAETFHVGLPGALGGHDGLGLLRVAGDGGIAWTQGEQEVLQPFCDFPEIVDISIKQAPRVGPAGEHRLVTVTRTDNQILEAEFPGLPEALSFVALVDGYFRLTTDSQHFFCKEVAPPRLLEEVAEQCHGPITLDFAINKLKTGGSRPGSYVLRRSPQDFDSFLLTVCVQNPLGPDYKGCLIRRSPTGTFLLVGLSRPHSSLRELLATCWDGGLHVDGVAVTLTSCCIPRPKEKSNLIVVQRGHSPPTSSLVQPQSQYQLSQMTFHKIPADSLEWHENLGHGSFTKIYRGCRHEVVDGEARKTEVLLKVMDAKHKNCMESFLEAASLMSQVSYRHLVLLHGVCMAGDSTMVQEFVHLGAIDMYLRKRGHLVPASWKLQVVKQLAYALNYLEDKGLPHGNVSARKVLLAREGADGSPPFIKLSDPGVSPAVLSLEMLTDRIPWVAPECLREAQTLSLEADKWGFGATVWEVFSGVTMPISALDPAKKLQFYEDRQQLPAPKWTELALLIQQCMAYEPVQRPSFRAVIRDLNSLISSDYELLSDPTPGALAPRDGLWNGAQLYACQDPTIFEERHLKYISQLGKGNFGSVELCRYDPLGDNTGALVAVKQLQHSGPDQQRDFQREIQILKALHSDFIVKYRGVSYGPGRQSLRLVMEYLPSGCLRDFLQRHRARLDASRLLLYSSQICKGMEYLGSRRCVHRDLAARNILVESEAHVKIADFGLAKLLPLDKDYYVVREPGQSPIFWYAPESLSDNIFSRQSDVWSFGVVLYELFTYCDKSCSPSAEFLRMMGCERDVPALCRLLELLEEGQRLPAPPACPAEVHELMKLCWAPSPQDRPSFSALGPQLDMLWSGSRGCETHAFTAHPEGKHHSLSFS
Method: (§1) All compounds were initially prepared as 10 mM stocks in anhydrous dimethylsulfoxide (DMSO). A 20 μL aliquot of the 10 mM solutions was transferred to individual wells in column 1 of a 96-well polypropylene microtiter plate (Corning #3363) and diluted with DMSO to give a final compound concentration of 4 mM. Test compounds were then serially diluted 1:5 in DMSO for an 11-point concentration response and further diluted in the assay buffer bringing all compound concentrations to a final range of 100 μM to 10 pM in 2.5% DMSO. The assay was performed in white 96-well, flat-bottom, half-area, non-binding assay plate (Corning #3642) in assay buffer consisting of 20 mM HEPES (pH 7.5), 10 mM MgCl2*6H2O, 100 μM sodium orthovanadate, 0.05% CHAPS and 0.1% bovine serum albumin. […] Protein kinase activity was quantitated using Promega's KINASE-GLO™ luminescent Kinase Assay Kit according to the manufacturer's directions. […] Percent of Control (POC) values were determined for each concentration of compound tested according to the equation:
(§2) [formula] • IC50 values were calculated using the following 4-parameter logistic curve-fitting algorithm: […]

Amino acid sequences for entries named in this document (tags omitted). A change or cut given only in a name is not applied to a line headed by its entry.
UniProt P23458: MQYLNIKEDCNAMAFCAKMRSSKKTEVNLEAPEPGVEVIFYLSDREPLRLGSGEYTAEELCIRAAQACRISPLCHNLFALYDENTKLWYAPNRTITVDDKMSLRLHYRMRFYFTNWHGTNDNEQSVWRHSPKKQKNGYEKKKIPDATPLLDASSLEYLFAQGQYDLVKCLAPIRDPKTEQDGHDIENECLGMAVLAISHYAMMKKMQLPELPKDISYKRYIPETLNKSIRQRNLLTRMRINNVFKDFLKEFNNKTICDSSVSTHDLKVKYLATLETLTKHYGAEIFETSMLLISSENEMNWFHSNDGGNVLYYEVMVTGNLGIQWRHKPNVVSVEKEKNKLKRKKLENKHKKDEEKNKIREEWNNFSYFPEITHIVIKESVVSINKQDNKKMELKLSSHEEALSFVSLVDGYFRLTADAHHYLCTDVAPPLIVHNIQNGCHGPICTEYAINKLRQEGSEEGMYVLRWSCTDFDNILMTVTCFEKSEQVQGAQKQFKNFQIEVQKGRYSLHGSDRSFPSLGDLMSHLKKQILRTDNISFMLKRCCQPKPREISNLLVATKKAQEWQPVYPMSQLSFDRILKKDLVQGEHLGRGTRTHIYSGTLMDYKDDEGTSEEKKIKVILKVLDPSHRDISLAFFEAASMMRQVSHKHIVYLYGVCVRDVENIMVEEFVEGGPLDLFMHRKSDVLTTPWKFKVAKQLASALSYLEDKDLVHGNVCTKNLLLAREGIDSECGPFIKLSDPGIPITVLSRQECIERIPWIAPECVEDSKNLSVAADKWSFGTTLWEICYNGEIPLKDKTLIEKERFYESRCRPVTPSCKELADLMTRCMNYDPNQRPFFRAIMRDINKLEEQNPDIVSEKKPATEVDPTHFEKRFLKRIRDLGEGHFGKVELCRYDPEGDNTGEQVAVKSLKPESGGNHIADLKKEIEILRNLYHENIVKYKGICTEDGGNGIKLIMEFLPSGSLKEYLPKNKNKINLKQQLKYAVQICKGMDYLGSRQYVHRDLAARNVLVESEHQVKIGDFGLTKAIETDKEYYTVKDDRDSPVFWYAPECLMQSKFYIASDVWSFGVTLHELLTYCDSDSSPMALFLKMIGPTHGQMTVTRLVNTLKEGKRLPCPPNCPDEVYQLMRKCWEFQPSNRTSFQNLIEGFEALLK
UniProt P29597: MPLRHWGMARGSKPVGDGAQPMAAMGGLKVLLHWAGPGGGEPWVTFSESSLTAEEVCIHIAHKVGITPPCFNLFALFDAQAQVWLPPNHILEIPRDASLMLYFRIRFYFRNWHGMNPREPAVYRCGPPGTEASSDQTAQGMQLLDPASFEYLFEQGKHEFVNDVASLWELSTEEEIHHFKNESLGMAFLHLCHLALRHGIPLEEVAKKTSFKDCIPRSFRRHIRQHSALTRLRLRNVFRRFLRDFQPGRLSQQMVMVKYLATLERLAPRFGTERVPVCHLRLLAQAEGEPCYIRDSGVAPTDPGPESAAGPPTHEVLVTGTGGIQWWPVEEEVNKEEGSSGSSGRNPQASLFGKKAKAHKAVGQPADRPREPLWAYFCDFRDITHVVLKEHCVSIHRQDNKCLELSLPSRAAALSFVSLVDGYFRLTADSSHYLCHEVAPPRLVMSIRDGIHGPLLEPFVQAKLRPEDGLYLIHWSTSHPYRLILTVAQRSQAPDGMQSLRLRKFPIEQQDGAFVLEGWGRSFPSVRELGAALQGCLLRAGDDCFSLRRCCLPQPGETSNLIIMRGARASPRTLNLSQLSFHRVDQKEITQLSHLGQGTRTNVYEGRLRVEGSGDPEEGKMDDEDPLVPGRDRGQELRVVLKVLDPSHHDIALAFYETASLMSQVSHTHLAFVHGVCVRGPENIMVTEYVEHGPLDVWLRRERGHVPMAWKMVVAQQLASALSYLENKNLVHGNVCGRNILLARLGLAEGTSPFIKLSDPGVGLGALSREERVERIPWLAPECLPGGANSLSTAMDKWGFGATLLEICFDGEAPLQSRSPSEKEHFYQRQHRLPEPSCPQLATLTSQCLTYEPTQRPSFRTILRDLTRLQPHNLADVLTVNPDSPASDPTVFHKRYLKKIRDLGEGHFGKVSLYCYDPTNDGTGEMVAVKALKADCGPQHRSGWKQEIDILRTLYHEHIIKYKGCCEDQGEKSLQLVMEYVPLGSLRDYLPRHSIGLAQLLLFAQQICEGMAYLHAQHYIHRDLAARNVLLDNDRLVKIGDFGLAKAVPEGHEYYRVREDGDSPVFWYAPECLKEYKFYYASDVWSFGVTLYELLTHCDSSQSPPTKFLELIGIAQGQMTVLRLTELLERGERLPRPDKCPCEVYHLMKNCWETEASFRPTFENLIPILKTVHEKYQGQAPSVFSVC

JAK1 = JAK1 (Homo sapiens, UniProt P23458); assay: JAK assay (KINASE-GLO luminescent kinase assay), JAK1
Method: as §1, §2

TYK2 = TYK2 (Homo sapiens, UniProt P29597); assay: JAK assay (KINASE-GLO luminescent kinase assay), TYK2
Method: All compounds were initially prepared as 10 mM stocks in anhydrous dimethylsulfoxide (DMSO). […] Test compounds were then serially diluted 1:5 in DMSO for an 11-point concentration response and further diluted in the assay buffer bringing all compound concentrations to a final range of 100 μM to 10 pM in 2.5% DMSO. The assay was performed in white 96-well, flat-bottom, half-area, non-binding assay plate (Corning #3642) in assay buffer consisting of 20 mM HEPES (pH 7.5), 10 mM MgCl2*6H2O, 100 μM sodium orthovanadate, 0.05% CHAPS and 0.1% bovine serum albumin. A 10 μL aliquot of compound from each well of the intermediate dilution plate and 20 μL of a 2×JAK substrate/enzyme solution containing acceptor substrate (800 nM Abl peptide), JAK enzyme (10 nM JAK1, JAK2, JAK3, or TYK2), and 1,4-Dithiothreitol (DTT, 2 μM) were added to all wells. The reaction was initiated by the addition of 10 μL of 4× stock solution ATP (2 μM). Reactions were thoroughly mixed manually, covered and allowed to incubate at room temperature for 75 min. Protein kinase activity was quantitated using Promega's KINASE-GLO™ luminescent Kinase Assay Kit according to the manufacturer's directions. […] Percent of Control (POC) values were determined for each concentration of compound tested according to the equation:
as §2

SMILES | IC50 (JAK3) | IC50 (JAK1) | IC50 (TYK2)
N#CCCn1cc(-c2nc(N(C(=O)c3ccccc3)C(=O)c3ccccc3)ncc2Cl)cn1 [ClC1═C(N═C(N═C1)N(C(═O)C2═CC═CC═C2)C] | ≥ 50000 nM | ≥ 50000 nM | ≥ 50000 nM
Cc1cnc(Nc2cccc3c2CN(C)C3)nc1-c1cnn(CC2(Cl)CC2)c1 [CN1CC2═CC═CC(═C2C1)NC3═NC(═C] |  |  | ≥ 50000 nM
Cc1ccc(S(=O)(=O)Nc2ncc(Cl)c(-c3cnn(CCC#N)c3)n2)cc1 [CC1═CC═C(C═C1)[S](═O)(═O)NC2═NC] | ≥ 50000 nM | ≥ 50000 nM | 

Reference: patent US20250236611A1, “PYRAZOLE COMPOUNDS AND USES THEREOF” (ALCON INC., priority 2021, published 2025)
